Experimental data published in paper PMC11277258.
These are yes or no findings as the source states them, for the method shown. In cells and extracts the contact can be indirect. Some results given as binding are weak or reduced against the parent protein; the word gives no strength.

Protein sequences, listed by entry. Tags and fused reporters are not part of them. Residues count along the entry.
UniProt P36021: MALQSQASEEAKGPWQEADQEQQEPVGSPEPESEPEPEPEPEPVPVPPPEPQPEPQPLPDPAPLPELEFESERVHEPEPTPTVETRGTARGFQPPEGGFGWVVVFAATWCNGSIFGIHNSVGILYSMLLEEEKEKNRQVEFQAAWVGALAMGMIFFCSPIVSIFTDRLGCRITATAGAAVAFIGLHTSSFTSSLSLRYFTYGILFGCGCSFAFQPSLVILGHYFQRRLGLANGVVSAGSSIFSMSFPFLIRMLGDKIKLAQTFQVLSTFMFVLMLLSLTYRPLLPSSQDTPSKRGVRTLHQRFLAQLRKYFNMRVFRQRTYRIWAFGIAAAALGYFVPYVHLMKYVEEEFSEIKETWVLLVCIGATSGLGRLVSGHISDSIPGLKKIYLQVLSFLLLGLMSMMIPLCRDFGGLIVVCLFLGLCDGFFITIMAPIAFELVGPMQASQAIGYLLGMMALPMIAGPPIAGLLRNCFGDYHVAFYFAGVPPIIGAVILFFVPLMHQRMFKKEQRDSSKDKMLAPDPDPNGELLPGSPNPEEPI
UniProt P32245: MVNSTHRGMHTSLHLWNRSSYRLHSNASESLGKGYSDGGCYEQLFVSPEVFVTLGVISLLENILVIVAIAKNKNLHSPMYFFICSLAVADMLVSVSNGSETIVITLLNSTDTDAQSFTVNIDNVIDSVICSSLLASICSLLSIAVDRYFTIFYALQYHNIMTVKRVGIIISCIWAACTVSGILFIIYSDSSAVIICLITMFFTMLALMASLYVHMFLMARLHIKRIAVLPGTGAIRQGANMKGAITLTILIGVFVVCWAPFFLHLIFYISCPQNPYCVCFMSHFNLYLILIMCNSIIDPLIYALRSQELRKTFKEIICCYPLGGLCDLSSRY
UniProt P16473, residues 21-764: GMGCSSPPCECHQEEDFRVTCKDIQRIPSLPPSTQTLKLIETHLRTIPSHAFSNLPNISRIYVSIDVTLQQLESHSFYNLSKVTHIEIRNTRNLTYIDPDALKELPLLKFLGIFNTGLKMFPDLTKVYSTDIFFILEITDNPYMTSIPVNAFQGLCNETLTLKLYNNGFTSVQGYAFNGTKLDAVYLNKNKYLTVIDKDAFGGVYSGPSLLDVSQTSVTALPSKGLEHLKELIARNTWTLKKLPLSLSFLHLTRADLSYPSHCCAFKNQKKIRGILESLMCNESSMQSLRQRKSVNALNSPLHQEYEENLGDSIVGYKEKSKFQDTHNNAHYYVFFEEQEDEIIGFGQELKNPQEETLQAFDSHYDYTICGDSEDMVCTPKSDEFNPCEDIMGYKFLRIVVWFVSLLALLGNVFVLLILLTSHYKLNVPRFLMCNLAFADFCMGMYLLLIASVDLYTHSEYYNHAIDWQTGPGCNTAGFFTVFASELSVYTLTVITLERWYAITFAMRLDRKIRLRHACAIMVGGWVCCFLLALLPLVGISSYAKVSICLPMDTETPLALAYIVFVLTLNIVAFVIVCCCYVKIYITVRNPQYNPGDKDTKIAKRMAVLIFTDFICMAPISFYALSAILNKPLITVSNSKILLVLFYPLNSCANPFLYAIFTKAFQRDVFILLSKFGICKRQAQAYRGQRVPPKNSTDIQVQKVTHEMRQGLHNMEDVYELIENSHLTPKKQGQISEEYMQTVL
UniProt Q9NRW1: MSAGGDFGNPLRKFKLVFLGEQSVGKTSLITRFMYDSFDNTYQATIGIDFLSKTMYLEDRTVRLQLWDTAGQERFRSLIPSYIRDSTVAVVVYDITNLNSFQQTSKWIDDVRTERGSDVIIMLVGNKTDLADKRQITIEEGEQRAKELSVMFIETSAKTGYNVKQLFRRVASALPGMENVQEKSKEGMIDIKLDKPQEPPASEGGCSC

Key:
[1] = biological target: monocarboxylate transporter 8, C-terminally tagged with HaloTag (MCT8-HT) (human) (UniProt P36021); experiment: FRET or BRET; NanoBRET Donor Saturation Assay in HEK293 cells; increasing amount of donor (MC4R-NL, Rab6b-NL, TSHR-NL) with constant amount of acceptor (MCT8-HT)
[2] = biological target: monocarboxylate transporter 8, C-terminally tagged with HaloTag (MCT8-HT) (human) (UniProt P36021); experiment: FRET or BRET; NanoBRET in live HEK293 cells; donor (NL-tagged) and acceptor (MCT8-HT) DNA co-transfected 1:8 (100 ng:800 ng); HT-Ligand 618; emission at 460 nm and 618 nm; DMSO background subtracted; mBU

| binding [1] | binding [2] | Substance |
| --- | --- | --- |
| binds |  | melanocortin-4 receptor, C-terminally tagged with NanoLuc (MC4R-NL) (from UniProt P32245 1-332) |
| binds | binds | thyroid-stimulating hormone receptor, C-terminally tagged with NanoLuc (TSHR-NL) (from UniProt P16473 21-764) |
| no binding |  | Ras-related protein Rab6b, C-terminally tagged with NanoLuc (Rab6b-NL) (from UniProt Q9NRW1 1-208) |
